Experimental data from publication PMC5606929.

Target: transmembrane domain of CD4 coupled to Cub ('artificial bait') (human)
Test: two-hybrid; Membrane Yeast Two-Hybrid (MYTH), S. cerevisiae NMY51 (HIS3/ADE2/LacZ); Cub-tagged bait, NubG-tagged prey; colony growth on interaction selective media (SD-WLAH) containing X-Gal; confirmed by back transformation

B1: NEDD4 family interacting protein 2 (NDFIP2) clone from the MYTH screening, amino acids 203-336, NubG-tagged (domain or fragment, UniProt Q9NV92 203-336)
chain: ETSQRIQEEECPPRDDFSDADQLRVGNDGIFMLAFFMAFIFNWLGFCLSFCITNTIAGRYGAICGFGLSLIKWILIVRFSDYFTGYFNGQYWLWWIFLVLGLLLFFRGFVNYLKVRNMSESMAAAHRTRYFFLL
With B1 the binding was “no binding”.

Results are given in words; binding and its absence hold for the method and conditions named. Where a sequence is shown, tags or fusion partners need not be part of it.
